Measured values from publication doi:10.1101/2024.06.27.601046.
These are yes or no findings as the source states them, for the method shown. Binding seen in cells or lysates may run through a third protein. Some binding calls cover weakened binding; strength is not graded here.

B1: RMI1 protein (protein, UniProt Q9H9A7 1-625)
chain: MNVTSIALRAETWLLAAWHVKVPPMWLEACINWIQEENNNVNLSQAQMNKQVFEQWLLTDLRDLEHPLLPDGILEIPKGELNGFYALQINSLVDVSQPAYSQIQKLRGKNTTNDLVTAEAQVTPKPWEAKPSRMLMLQLTDGIVQIQGMEYQPIPILHSDLPPGTKILIYGNISFRLGVLLLKPENVKVLGGEVDALLEEYAQEKVLARLIGEPDLVVSVIPNNSNENIPRVTDVLDPALGPSDEELLASLDENDELTANNDTSSERCFTTGSSSNTIPTRQSSFEPEFVISPRPKEEPSNLSIHVMDGELDDFSLEEALLLEETVQKEQMETKELQPLTFNRNADRSIERFSHNPNTTNNFSLTCKNGNNNWSEKNVSEQMTNEDKSFGCPSVRDQNRSIFSVHCNVPLAHDFTNKEKNLETDNKIKQTSSSDSHSLNNKILNREVVNYVQKRNSQISNENDCNLQSCSLRSSENSINLSIAMDLYSPPFVYLSVLMASKPKEVTTVKVKAFIVTLTGNLSSSGGIWSITAKVSDGTAYLDVDFVDEILTSLIGFSVPEMKQSKKDPLQYQKFLEGLQKCQRDLIDLCCLMTISFNPSLSKAMVLALQDVNMEHLENLKKRLNK
B2: TOP3A protein (enzyme, UniProt Q13472 1-1001)
chain: MIFPVARYALRWLRRPEDRAFSRAAMEMALRGVRKVLCVAEKNDAAKGIADLLSNGRMRRREGLSKFNKIYEFDYHLYGQNVTMVMTSVSGHLLAHDFQMQFRKWQSCNPLVLFEAEIEKYCPENFVDIKKTLERETRQCQALVIWTDCDREGENIGFEIIHVCKAVKPNLQVLRARFSEITPHAVRTACENLTEPDQRVSDAVDVRQELDLRIGAAFTRFQTLRLQRIFPEVLAEQLISYGSCQFPTLGFVVERFKAIQAFVPEIFHRIKVTHDHKDGIVEFNWKRHRLFNHTACLVLYQLCVEDPMATVVEVRSKPKSKWRPQALDTVELEKLASRKLRINAKETMRIAEKLYTQGYISYPRTETNIFPRDLNLTVLVEQQTPDPRWGAFAQSILERGGPTPRNGNKSDQAHPPIHPTKYTNNLQGDEQRLYEFIVRHFLACCSQDAQGQETTVEIDIAQERFVAHGLMILARNYLDVYPYDHWSDKILPVYEQGSHFQPSTVEMVDGETSPPKLLTEADLIALMEKHGIGTDATHAEHIETIKARMYVGLTPDKRFLPGHLGMGLVEGYDSMGYEMSKPDLRAELEADLKLICDGKKDKFVVLRQQVQKYKQVFIEAVAKAKKLDEALAQYFGNGTELAQQEDIYPAMPEPIRKCPQCNKDMVLKTKKNGGFYLSCMGFPECRSAVWLPDSVLEASRDSSVCPVCQPHPVYRLKLKFKRGSLPPTMPLEFVCCIGGCDDTLREILDLRFSGGPPRASQPSGRLQANQSLNRMDNSQHPQPADSRQTGSSKALAQTLPPPTAAGESNSVTCNCGQEAVLLTVRKEGPNRGRQFFKCNGGSCNFFLWADSPNPGAGGPPALAYRPLGASLGCPPGPGIHLGGFGNPGDGSGSGTSCLCSQPSVTRTVQKDGPNKGRQFHTCAKPREQQCGFFQWVDENTAPGTSGAPSWTGDRGRTLESEARSKRPRASSSDMGSTAKKPRKCSLCHQPGHTRPFCPQNR

What was measured:
[1] = biological target: T1, TOP3A protein (human (endogenous in K-562 and LAMA-84)) (UniProt Q13472); experiment: co-IP
T1 sequence: B2 chain

[2] = biological target: T2, RMI1 protein (human (endogenous in K-562 and LAMA-84)) (UniProt Q9H9A7); experiment: co-IP
T2 sequence: B1 chain

Binder	binding [1]	binding [2]
B1	binds	–
B2	–	binds
